Experimental data taken from PubChem BioAssay AID540276 (National Center for Advancing Translational Sciences (NCATS), 2011).
Hit rate of the full screen: of about 300,000 compounds, about 5,400 (1.8%) were called active. The inconclusive results got no clear call from the source; some entries with a clear call stand among them for comparison. Calls come from the whole dose curve; tested in HEK293 cells. Potencies of inconclusive entries are doubtful fits and often do not repeat.

Experiment: qHTS for inhibitors of binding or entry into cells for Marburg Virus
Details: Marburg virus pseudotyped entry inhibition, cell reporter; series mostly up to 37.8 µM
Potency is the fitted concentration of half-maximal effect.

SMILES | Potency
O=C(Cc1ccc(F)cc1)NCCc1ccc(F)cc1 | inconclusive: 35.5 µM [activator, single point]
Cc1nonc1OC(C)CNc1ccc([N+](=O)[O-])cc1 (centres undefined) | inconclusive: 29.1 µM [inhibitor, partial curve, poor fit]
O=C(c1ccco1)N1CCN(C(c2ccccn2)c2nnnn2C2CCCC2)CC1 (centres undefined) | inactive
COc1ccc(/C=N/OCC(=O)NCC(C)C)c(OC)c1 | inactive
CC(O)CNc1ccc(-c2n[nH]c(=O)c3ccccc23)cc1[N+](=O)[O-] (centres undefined) | inactive
Oc1ccc(/C=N/Nc2nc(N3CCCC3)nc(N3CCCC3)n2)cc1O | inconclusive: 5.01 µM [inhibitor, single point]
CC(N)C12CC3CC(C1)CC(C(C)N)(C3)C2 (centres undefined) | inconclusive: 4.47 µM [inhibitor, partial curve, poor fit]
CC(C)NC(=O)c1ccc(COc2ccc(C(C)(C)C)cc2)o1 | inconclusive: 3.16 µM [inhibitor, single point]
CCc1ccc(OCC(=O)OCC(=O)NC2CCCC(C)C2C)cc1 (centres undefined) | inconclusive: 3.55 µM [activator, single point]
O=[N+]([O-])c1cccc(-c2ccc(/C=N/Nc3nc(N4CCCCC4)nc(N4CCCCC4)n3)o2)c1 | inconclusive: 11.2 µM [inhibitor, partial curve, poor fit]
O=C(O)c1c2c(nc3ccc(S(=O)(=O)N4CCC(C(=O)NC5CCCC5)CC4)cc13)CCCCC2 | inactive
CCOC(=O)c1ccc2c(c1)nc(COc1ccc(OC)cc1)n2CC | inactive
O=C(O)c1cc(S(=O)(=O)N(Cc2ccccc2)c2ccc(Cl)cc2)ccc1Cl | inconclusive: 35.5 µM [inhibitor, single point]
CC1(C)CC2(CC(c3ccccc3F)c3ccc(O)c(O)c3O2)NC(=S)N1 (centres undefined) | inactive
CCOC(=O)N1CCN(C(=O)CS(=O)(=O)c2cn(Cc3ccccc3C)c3ccccc23)CC1 | inconclusive: 7.3 µM [inhibitor, partial curve, poor fit]
c1ccc2c(Nc3ccc4c(c3)OCCO4)c3c(nc2c1)CCCC3 | inconclusive: 5.01 µM [inhibitor, partial curve, poor fit]
CC1Cc2ccccc2N1C(=O)CSc1ncc(-c2ccc(F)cc2)n1C (centres undefined) | inconclusive: 3.16 µM [activator, partial curve, poor fit]
CN1CCc2c(sc3nc(SCC(=O)N4CCOCC4)nc(N)c23)C1 | inconclusive: 5.62 µM [inhibitor, single point]
O=C(Nc1ccc(Cl)cc1)N1CCC(c2ccccc2)C1 (centres undefined) | inconclusive: 12.6 µM [inhibitor, single point]

Exported field by field: 2 of the compounds above
O=C(c1ccco1)N1CCN(C(c2ccccn2)c2nnnn2C2CCCC2)CC1 (centres undefined)
  Potency: inactive
COc1ccc(/C=N/OCC(=O)NCC(C)C)c(OC)c1
  Potency: inactive
